Measured values as given in article PMC11884132.
Results are given in words; binding and its absence hold for the method and conditions named. In cells and extracts the contact can be indirect. Some binding calls cover weakened binding; strength is not graded here. For part of these data: Tags and fused reporters may be left off the sequences shown.

The chains behind the UniProt entries cited, without tags or fusion partners.
UniProt Q12834: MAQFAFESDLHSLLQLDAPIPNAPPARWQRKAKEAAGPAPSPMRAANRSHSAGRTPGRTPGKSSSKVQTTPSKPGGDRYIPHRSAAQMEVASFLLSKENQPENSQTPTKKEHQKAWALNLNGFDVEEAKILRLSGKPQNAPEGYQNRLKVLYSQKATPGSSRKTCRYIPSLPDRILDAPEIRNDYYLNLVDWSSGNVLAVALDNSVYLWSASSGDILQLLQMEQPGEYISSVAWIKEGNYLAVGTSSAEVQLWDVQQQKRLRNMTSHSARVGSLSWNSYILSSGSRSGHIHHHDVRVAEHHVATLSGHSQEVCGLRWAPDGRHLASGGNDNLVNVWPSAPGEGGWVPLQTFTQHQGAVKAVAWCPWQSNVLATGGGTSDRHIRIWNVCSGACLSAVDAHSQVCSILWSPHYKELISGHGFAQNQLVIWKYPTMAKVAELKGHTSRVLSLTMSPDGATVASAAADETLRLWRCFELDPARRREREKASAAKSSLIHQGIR

Columns and labels:
Myc-CCDC69 = molecular target: T1, Myc-CCDC69 (UniProt A6NI79); test: co-IP; 293 T cells co-transfected with Flag-CDC20 and MYC-CCDC69; lysates incubated overnight at 4 °C with anti-Flag or anti-MYC antibody; eluted with 1 × SDS buffer; western blot
T1 sequence: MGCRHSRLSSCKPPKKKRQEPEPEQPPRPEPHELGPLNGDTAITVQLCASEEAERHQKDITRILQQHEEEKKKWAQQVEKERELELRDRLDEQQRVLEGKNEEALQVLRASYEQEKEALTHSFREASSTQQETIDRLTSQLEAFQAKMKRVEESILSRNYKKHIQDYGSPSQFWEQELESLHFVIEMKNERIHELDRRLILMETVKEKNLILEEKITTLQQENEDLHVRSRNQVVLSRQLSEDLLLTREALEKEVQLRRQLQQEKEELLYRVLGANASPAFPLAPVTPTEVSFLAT

[1] = molecular target: CDC20 (in 293 T cells, precipitated by the anti-CDC20 antibody) (human (endogenous in 293 T)) (UniProt Q12834); test: co-IP; 293 T cells; immunoprecipitation with anti-CDC20 antibody, IgG control; western blot for CDC20 and CCDC69
Flag-CDC20 (1–499) = Flag-CDC20 (1–499) (UniProt Q12834); test: co-IP; 293 T cells co-transfected with Flag-CDC20 and MYC-CCDC69; lysates incubated overnight at 4 °C with anti-Flag or anti-MYC antibody; eluted with 1 × SDS buffer; western blot

Flag-CDC20 (1–499) (from UniProt Q12834 1-499)
binding (Myc-CCDC69): binds

B1: CCDC69 (in 293 T cells) (protein, UniProt A6NI79 1-296)
chain: T1 sequence
binding [1]: binds

B2: Myc-CCDC69 (protein, UniProt A6NI79 1-296)
chain: T1 sequence
binding (Flag-CDC20 (1–499)): binds
